Conditions: DexP:Ca^2+=1:1

C[C@@H]1C[C@H]2[C@@H]3CCC4=CC(=O)C=C[C@]4(C)[C@@]3(F)[C@@H](O)C[C@]2(C)[C@@]1(O)C(=O)COP(=O)(O)O [Dexamethasone phosphate, dexamethasone phosphate disodium]
Critical gelation concentration (lowest concentration of DexP which leads to a stable gel): ~10 mM

Source: US20190125669A1, “SYSTEMS AND METHODS FOR STEROIDAL GELS” (Children's Medical Center Corporation, priority 2016, published 2019)
